Measurements as given in US12723279B2, “Long stokes shift chromenoquinoline dyes and uses in sequencing applications” (priority 2020, dated 2026).
Some of these results come from one statement about several compounds together.

Experiment: Stability of dye labeled ffAs in nucleotide storage buffers (Tris, MOPS, 40° C.)
Assay type: physicochemical
Settings: 10 μM, dark
[1] = 10 mM Tris buffer pH 8.0, 40° C., after 14 days (FIG. 3C)
[2] = 100 mM MOPS buffer pH 7.0, 40° C., after 14 days (FIG. 3D)

| SMILES | fluorescence retained [1] [%] | fluorescence retained [2] [%] |
| --- | --- | --- |
| Cc1cc2cc3c([n+](C)c2cc1C)-c1cc2c(cc1OC3)N(CCCC(=O)NCCCCCNC(=O)c1cccc(OCC(N=[N+]=[N-])OCC(=O)NCC#Cc3cn([C@H]4CC(OCN=[N+]=[N-])[C@@H](COP(=O)(O)OP(=O)(O)OP(=O)(O)O)O4)c4ncnc(N)c34)c1)CCC2 (stereo partly shown) [ffA-sPA-LN3-I-3] | > 90 | > 75 |
| COc1cc2cc3c([n+](C)c2cc1OC)-c1cc2c(cc1OC3)N(CCCC(=O)NCCCCCNC(=O)c1cccc(OCC(N=[N+]=[N-])OCC(=O)NCC#Cc3cn([C@H]4CC(OCN=[N+]=[N-])[C@@H](COP(=O)(O)OP(=O)(O)OP(=O)(O)O)O4)c4ncnc(N)c34)c1)CCC2 (stereo partly shown) [ffA-sPA-LN3-I-4] | > 90 | > 75 |
